In all, about 52,000 sequences went through this assay and about 210 (0.4%) were called active.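 How the source made its calls: active means gene whose silencing raises cell survival under the drug, median off-target-corrected z-score across its silencing RNAs 2 or more; inactive means the rest.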 The list shows a part of the results.
Test: Resistance to Poly (ADP-Ribose) Polymerase inhibitor: Gene Identification via Genome-wide siRNA Screen
Settings: mouse BRCA2 R2336H ES cells, olaparib, CellTiter-Glo viability; active compounds read high
Outline: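 Genome-wide siRNA screen (3 siRNAs/gene, 20 nM) in mouse ES cells carrying hypomorphic BRCA2 R2336H; olaparib 500 nM added 48 h post-transfection, CellTiter-Glo viability 72 h later. Normalized to plate-median negative control; MAD z-scores, gene median, seed-adjusted.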

Sequence	z-score
GGAAAGAGCAAACAGUUCCTT against Il1f6	inactive: -1.08
CCGAGAUGCCAAUAAAUGATT against Tcl1	inactive: -0.326
CCACACUGAGUUUUACUACTT against Il22ra1	inactive: 0.355
CGUAGACAUGGCCUUUUUUTT against B230399E16Rik	inactive: -0.281
CCAGGAUGAAAGGUCACACTT against 9130221D24Rik	inactive: 1.5
GGCAUCACUGAUGAAUGAATT against Pacsin2	active: -0.947
GGACCUUAGCUGCUCUAACTT against Bai3	inactive: 0.191
CGUACAUUGCUCUUCUUUUTT against Atp2a3	inactive: 0.0305
GGAGAUUGCCAAGCAUAAGTT against Pcyt2	inactive: 0.258
GGAUAGCUCUAUCAACUCUTT against Serpinb3b	inactive: -0.56
GGAAUUGGUUCAGAAAUAUTT against Rtn4	inactive: 1.9
GGCUGCUGAUGAAAUGACUTT against Guca2b	inactive: -0.727
GGUUUACACGGUGGUAGAUTT against Ap2s1	inactive: 1.29
GGCCCUAGAUGAGCACAAATT against Kcnh3	inactive: -0.111
GGUGCUAAGUAUUCUUAUCTT against D19Ertd703e	inactive: -0.251
CCCGCUCAAGAUCCUGUUUTT against 2310011J03Rik	inactive: -1.85
GCUAGACUUGGAGAAUUAATT against E430034L04Rik	inactive: 0.913
GGAGGUGUAGAGAUGAAGCTT against Metapl1	inactive: 2.1
GGAACAUGACUUUCUCUGUTT against BC021367	inactive: -0.951
CCCGAUCAUGCAUAGCUGATT against Decr2	inactive: 0.796
GGAAAGAUCGAGGAAGAUATT against 0610039D01Rik	inactive: -0.0138
GCUUCAUGCAAAAGUCACCTT against Prg3	inactive: 0.627
GGUCAAAACAUGUUGAAGGTT against B330016D10Rik	inactive: 0.0542
GCUAGGUCCCAAUUUUCACTT against Psg29	inactive: -1.21
GGCAGACUUCUACAAGGAATT against C230030N03Rik	inactive: -0.513
GGCUCACAAGGAAGAGAUCTT against Cstad	inactive: 0.371

Some of the entries so far, with bars between the fields:
Sequence | z-score
GGAGGUGUAGAGAUGAAGCTT against Metapl1 | inactive: 2.1
GGAACAUGACUUUCUCUGUTT against BC021367 | inactive: -0.951
CCCGAUCAUGCAUAGCUGATT against Decr2 | inactive: 0.796
GGAAAGAUCGAGGAAGAUATT against 0610039D01Rik | inactive: -0.0138

(cont.)

Sequence	z-score
GCAUGGAGAGAACCUGAAATT against Rnf36	inactive: -2.37
CCUAGCAAAGCUGUUCCACTT against Vapa	inactive: 0.689
GGAGCUUCUACAGUACGAGTT against 4930578I06Rik	inactive: 0.44
CCUUCUACAAGUGGUGUUGTT against Actl7a	inactive: -0.0191
GGCAAAUUUCACCAUCUUATT against Dsc3	inactive: 0.807
GCAUGACAUUCCGAAAACUTT against 4921517D22Rik	inactive: 1.08
GGAGAAAAUUCAUACCCGATT against 0610009F02Rik	inactive: 0.703
GGAGAUUGAGAACACAAGCTT against Hipk2	inactive: 1.43
CGACUGGAAAAAGAUUGGGTT against Ttf1	inactive: -0.495
GGAGCAAUGUCAUCAGCACTT against Gpr124	inactive: 0.115
GCAUGCAUGAUGGAUCUUCTT against Gabrb1	inactive: -2
CCAAGUUUUUAUGCAGAUATT against Pip5k1a	inactive: -1.31
GGAGAAGAAACUGGUGAAGTT against Etfb	inactive: -1.69
GGACAGAAUUGAAAUGCCUTT against Ropn1l	inactive: 0.649
CCCUCUAUCACGGCUACUATT against Hspb2	inactive: -2.53
CGUUGUAUGCUAGUACUGATT against Olfr1501	inactive: 0.456
GCCGUGAUGCCUAAAAUGCTT against Olfr543	inactive: 0.192
GGGAAAGAUAGUUAAUGGATT against Icam4	inactive: -0.514
GGCAUUCAAAAGGUAAAAUTT against Grid2	active: 2.35
GGAAAAACGGGAUCUGCCATT against A530053G22Rik	inactive: -0.307
CGCAUUCCUACCAAAAACCTT against Defb14	inactive: -0.0682
GGAAGGUAUCUGAGGUCCGTT against 2810408A11Rik	inactive: -0.347
UCAAUUUGACUGAUCUGCATT against Cyp2j11	inactive: 0.706
GCUCCGGAAAGUAAGCAGATT against Tnfrsf26	inactive: -1.34
GCAGCUGAGAGUGACAUCATT against Atp1a2	inactive: -0.848
CCAGAUAAUGAACACUUUGTT against Wdr1	inactive: -0.93

Sequence	z-score
GCCAGAGUGUCGAAUAUCATT against Dll4	inactive: 0.0472
GGGUUCAGGGUGGAAAAUGTT against Dntt	inactive: -1.63
GGAUGAUCUUGGUGUACACTT against A830041P22Rik	inactive: -1.99
GGAUUUAUGGAAAAUUGGUTT against Zik1	inactive: -0.445
CCUUCAAUCAUGUUCUAACTT against 6332401O19Rik	inactive: 1.04
GCCAAUUGGAAACUGUGAGTT against Scmh1	inactive: -1.52
GGAGCUUUUAAGAAUGUGGTT against Ireb2	inactive: -1.34
GCUCUACCUCAGAUAAAGGTT against 4930517K23Rik	inactive: -0.066
CGAAAUGGGAUUAAAACAATT against A830059I20Rik	inactive: -0.708
GGCUGUGCAUACCAUGUUGTT against Sart2	inactive: 0.609
GGAUUGAGCUACAAGAAUATT against E330016A19Rik	inactive: -0.0566
CCUAAAGUCACAUCUAAGATT against D19Bwg1357e	inactive: 0.38
GCCCUUAGCUUGUGUUAUCTT against Hagh	inactive: 2.45
GGAUGUCUUAGAUGUUUACTT against Mcm7	inactive: -2.61
GGUUGCACUACCUUCAUAUTT against 4933426M11Rik	inactive: -2.05
GGUUGUGGAACUAGAAUAUTT against Wdr12	inactive: -1.25
CCACAGAUUCCAUGAUCCCTT against Gdap1l	inactive: -0.786
GCUGGUACAAGGUGUUUGATT against Pqbp1	inactive: 2.49
GGCAUACACAGUCUUCAAUTT against Txk	inactive: 0.46
GAUGAUUGACGACAUGGAATT against Rgs9bp	inactive: 0.171
GCGAUUCUCCGUGAUGUACTT against 3300001H21Rik	inactive: -0.419
GGCAGAUGCUAAAAAAGCUTT against Rnf128	inactive: -0.39
GGGAAAAAUUUCUUCUGUUTT against Olfr918	inactive: -0.434
GCUUUGAGUACUGACACGCTT against Gpr2	inactive: 0.474
AAAGCUUAUAACCAUCAACTT against MGC58382	inactive: 0.409
GGACAUCACGCAAAUCGUGTT against Nmnat1	inactive: 0.124

2 entries drawn at random from those above:
Sequence	z-score
GGGAAAGAUAGUUAAUGGATT against Icam4	inactive: -0.514
GGACAUCACGCAAAUCGUGTT against Nmnat1	inactive: 0.124

More records.

Sequence	z-score
GGCAGCUUCAGGAACCAAUTT against Krt2-5	inactive: -0.027
GGACUUGAUCCCAAAGCUGTT against Mrpl17	inactive: 0.247
GGUACAUCGACUUCCUGUATT against Twist1	inactive: -1.4
GCUACAACUAGAACAAUUATT against Hook1	inactive: -2.36
CGUCACUGAUGUGGCUUUUTT against 4932443D16Rik	inactive: -2.55
GGCUGAAAAAAGUGGAGAATT against Sh3bgr	inactive: 0.438
GCCUUAUCCUGAGAAUGGCTT against 2900010D03Rik	inactive: 0.26
GGGCGGAAAACUAGACCUATT against 1500005I02Rik	inactive: 0.72
GGCACUUCUUAAUCCCACATT against Nfe2	inactive: 1.48
GGAGAGGCAUCUUUUCCUATT against Arhgap20	inactive: 0.45
GGUGACUCAUAUUCGGAUCTT against Hcph	inactive: 0.584
GGAAGUUUAAAGUCUAGAATT against Adcy7	inactive: 0.905
GCCAAAGACUCUUAUAAGUTT against Bnc1	inactive: 0.697
AGUUUAGGUCUACAGAUACTT against Ggnbp1	inactive: -0.369
GCCUAUACUGAUUUAUGAUTT against Tomm7	inactive: -0.191
GGAGACAUUCCUGAAAGCUTT against Ankrd2	inactive: -0.721
GGAAAUGACCAGUCUGUUUTT against Zmym1	inactive: -0.296
GGAUUCUUGGAGCUCAUUATT against Stag3	inactive: -0.97
GCUGAAUUCGAAGAACAAUTT against Bpil1	inactive: 0.796
GGUCCCUAUGUUAUUGAUUTT against Spock2	inactive: -0.0692
GGUUGUGUUCAUGGAGAAGTT against Nfatc2	inactive: -0.726
GGAGACAGAAAUGAGUUCATT against Slc34a2	inactive: -0.442
GGUCUCGGGUCUGAUUUAATT against Foxa2	inactive: 0.601
GGAAACUGAGUUAGAUGCATT against E330036I19Rik	inactive: -1.25
GGAGCUAAACCAAUGGCAATT against 2310047H23Rik	inactive: 1.05

A few values from the entries so far:
Entry for GGCCCUAGAUGAGCACAAATT against Kcnh3 under z-score: inactive: -0.111
Entry for GGCAUCACUGAUGAAUGAATT against Pacsin2 under z-score: active: -0.947

Reference: PubChem BioAssay AID1347423 (Functional Genomics Laboratory (NCATS/FGL), 2020)
